Measurements taken from article PMC12395558.
Results are given in words; binding and its absence hold for the method and conditions named. In cells and extracts the contact can be indirect. Binding can be weak; no strength is given.

Target: GST-P300 fusion protein
Assay: pull-down; GST fusion protein coupled to Glutathione-Sepharose 4B beads, incubated with GCDH overexpression MHCC-97H whole-cell lysates for 2 h at 4 °C, washed 3 times, Western blot; only the target purified

binding: binds
B1: GCDH overexpressed in MHCC-97H cells (protein, UniProt Q92947 45-438)
chain: RPEFDWQDPLVLEEQLTTDEILIRDTFRTYCQERLMPRILLANRNEVFHREIISEMGELGVLGPTIKGYGCAGVSSVAYGLLARELERVDSGYRSAMSVQSSLVMHPIYAYGSEEQRQKYLPQLAKGELLGCFGLTEPNSGSDPSSMETRAHYNSSNKSYTLNGTKTWITNSPMADLFVVWARCEDGCIRGFLLEKGMRGLSAPRIQGKFSLRASATGMIIMDGVEVPEENVLPGASSLGGPFGCLNNARYGIAWGVLGASEFCLHTARQYALDRMQFGVPLARNQLIQKKLADMLTEITLGLHACLQLGRLKDQDKAAPEMVSLLKRNNCGKALDIARQARDMLGGNGISDEYHVIRHAMNLEAVNTYEGTHDIHALILGRAITGIQAFTASK
